Laboratory results: patent publication US20230293488A1, “COMPOSITIONS AND METHODS OF USE OF ANTIBACTERIAL DRUG COMBINATIONS” (priority 2015, published 2023)
“Also recorded” adds a separate entry of the source. At least one structure is not confirmed: it was looked up by name or label, or the drawing left a doubt.

Test system: MRSA N315
Experiment: Adaptation and cross-resistance assays (11-day passage)
Type: cell-based, Staphylococcus aureus
Settings: MRSA N315 after prior exposure/adaptation to piperacillin
Method: Adaptation and Cross-resistance Assays: 414 MRSA N315 was grown in 150 μl/well of CAMHB with constant shaking at 37° C. and passaged over 11 days in identical 96-well plates containing replicate threefold dilutions of ME/PI/TZ, ME/PI, ME/TZ, PI/TZ, ME, PI, and TZ. Top concentrations of drug combinations were 33.3 μg/ml for each component, while top concentrations for single drugs was 100 μg/ml. To test for cell viability, at the end of the assay on day 11, all wells from the plate were pinned with a sterile 96-pin replicator and transferred to CAMHB only. After passage, plates were filled 1:1 with 30% CAMHB/glycerol and frozen at −80° C. for later analysis.
Growth rate of isolates over passages in each condition was determined by linear best-fit of logarithm-converted exponential growth phase. […] Adapted isolates were retrospectively chosen from each combination or single compound in wells showing an increase in MIC or growth rate, frozen isolates were streaked out on agar plates to obtain single colonies, re-grown in broth conditions identical to those in which they grew originally, and then re-inoculated in sterile 96-well plates identical to the original 11-day 431 plates.

## C[C@@H](O)[C@H]1C(=O)N2C(C(=O)O)=C(SCCN=CN)C[C@H]12 [imipenem]
  collateral effect on susceptibility: sensitizes; also recorded: collateral sensitization
